In patent publication US9897607B2, “Methods, kits, and systems for treatment of metastatic papillary thyroid cancer” (The Governors of the University of Alberta, priority 2012, dated 2018):
“Also recorded” adds a separate entry of the source. At least one structure is not confirmed: it was looked up by name or label, or the drawing left a doubt.

Experiments:
[1] = test system: TPC-1 cell line; assay: Cytoselect cell invasion assay, TPC-1; format: cell-based, human; details: Ly294002 10 umol/L (PI3K/Akt blockade), PDGF-BB 25 ng/mL 1 h later, 16 hours
Method: As previously described, Cytoselect™ 96-well cell invasion assay kit was used (Cell Biolabs, San Diego, Calif., USA) to assess cell invasiveness according to the manufacturer's protocol.^46 Briefly, TPC-1, BCPAP and 8305C after transfected with either PDGFRα siRNA or scramble siRNA, 10000 cells were starved overnight and added to the inserts, PDGF-BB was added to some wells at the concentration of 25 ng/mL, PDGF-BB was added 1 h later for inhibitors, sunitinib (0.2 umol/L), Ly294002 (10 umol/L) and (U0126) 2 umol/L, cells were seeded into the insert plate for 16 hours, the invasive cells passed through basement membrane layer to the bottom and dissociated from membrane by the addition of cells detachment buffer, the invasive cells were lysed and followed by quantification using CyQuant GR fluorescent Dye. For cell viability analysis 10000 cells were seeded per well and cultured for 16 hours. MTS assay (Promega, Madison, USA) was then performed in 4 replicates followed manufacturer's instructions. PTC cell lines transfected with PDGFR specific siRNA or scrambled control were plated at a density of 10,000 or 20,000/ml and cultured for 5 days. Cell counts were done on days 2, 3 and 5 using trypan blue (Sigma-Aldrich, Oakville, Canada) and results expressed as total number of viable cells. […] The absorbance was recorded by a BioRad spectrophotometer at day 5 of cell culture.

[2] = test system: PDGFR-α/β, MAPK/ERK and PI3K/Akt pathways in TPC-1 cells; assay: Western blot of PDGFR activation and MAPK/ERK, PI3K/Akt signalling, TPC-1; format: cell-based, human; details: PDGF-BB stimulated TPC-1 cells; Ly294002 10 umol/L and 25 umol/L
Method: Primary cell culture and experimental cell lines were maintained in RPMI 1640 media supplemented with 10% FBS. The cells were seeded in a 100-mm culture dish and were grown in a humidified 5% CO2 incubator. For PDGF-BB stimulation (25 ng/ml), cells were grown to about 80% confluence and incubated in serum-free medium overnight prior to each experiment. MAPK/ERK inhibitors U0126 and PD98059 were purchased from Calbiochem (Toronto, Ontario, Canada). PI3K/Akt inhibitor ly294002 was purchased from Cell Signaling Technology (Danvers, Mass., USA). […]
Cells were lysed in RIPA buffer [150 mM NaCl, 100 mM Tris (pH 8.0), 1% Triton X-100, 1% deoxycholic acid, 0.1% SDS, 5 mM EDTA, and 10 mM NaF] supplemented with 1 mM sodium vanadate, 2 mM leupeptin, 2 mM aprotinin, 1 mM phenylmethylsulfonyl fluoride (PMSF), 1 mM DTT, 2 mM pepstatin, and 1:100 protease inhibitor cocktail set III on ice. […] The protein concentration was determined using Bio-Rad protein assay reagent (Richmond, Va., USA). […] Protein bands were detected by incubation with horseradish peroxidase-conjugated antibodies (Pierce Biotechnology, Rockford, Ill., USA) and visualized with SuperSignal West Pico chemiluminescence substrate (Thermo Scientific, Rockford, Ill., USA).

O=c1cc(N2CCOCC2)oc2c(-c3ccccc3)cccc12 [Ly294002]
PDGF-BB mediated increases in invasive potential [1]: sufficient to abrogate increases in invasive potential; also recorded: prevents PDGF-BB mediated increases in invasive potential | PI3K/Akt pathway blockade (Western blot) [2]: decreased protein expression; also recorded: nearly complete
